Measured values published in publication PMC4299599, “Quantification of cytosolic interactions identifies Ede1 oligomers as key organizers of endocytosis” (Molecular Systems Biology, 2014).
No constants are given. Whether binding was seen depends on the method and setting. Some entries that bind do so weakly or less than the wild type. For some assays here: Tags and fused reporters may be left off the sequences shown.

Protein sequences, listed by entry. Tags and fused reporters are not part of them.
UniProt Q12446: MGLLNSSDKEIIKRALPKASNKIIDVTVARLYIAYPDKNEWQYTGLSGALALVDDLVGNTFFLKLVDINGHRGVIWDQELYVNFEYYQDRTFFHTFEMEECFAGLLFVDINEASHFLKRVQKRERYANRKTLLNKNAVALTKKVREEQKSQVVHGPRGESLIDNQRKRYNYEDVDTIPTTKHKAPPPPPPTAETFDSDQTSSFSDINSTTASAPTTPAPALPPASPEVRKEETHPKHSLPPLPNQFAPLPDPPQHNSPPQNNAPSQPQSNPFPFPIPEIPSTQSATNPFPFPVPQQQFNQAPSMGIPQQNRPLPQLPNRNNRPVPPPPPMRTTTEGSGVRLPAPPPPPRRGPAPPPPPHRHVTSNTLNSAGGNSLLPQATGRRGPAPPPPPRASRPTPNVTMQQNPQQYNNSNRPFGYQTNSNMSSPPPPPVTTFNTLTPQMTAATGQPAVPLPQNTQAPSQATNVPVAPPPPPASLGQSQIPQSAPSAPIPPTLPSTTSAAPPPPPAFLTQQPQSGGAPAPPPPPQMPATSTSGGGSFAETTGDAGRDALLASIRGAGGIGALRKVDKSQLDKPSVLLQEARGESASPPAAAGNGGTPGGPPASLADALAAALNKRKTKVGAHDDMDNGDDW

B1: Bbc1 (natural protein, S. cerevisiae, UniProt P47068 1-1157, looked up)
chain: MSEPEVPFKVVAQFPYKSDYEDDLNFEKDQEIIVTSVEDAEWYFGEYQDSNGDVIEGIFPKSFVAVQGSEVGKEAESSPNTGSTEQRTIQPEVEQKDLPEPISPETKKETLSGPVPVPAATVPVPAATVPVPAATAVSAQVQHDSSSGNGERKVPMDSPKLKARLSMFNQDITEQVPLPKSTHLDLENIPVKKTIVADAPKYYVPPGIPTNDTSNLERKKSLKENEKKIVPEPINRAQVESGRIETENDQLKKDLPQMSLKERIALLQEQQRLQAAREEELLRKKAKLEQEHERSAVNKNEPYTETEEAEENEKTEPKPEFTPETEHNEEPQMELLAHKEITKTSREADEGTNDIEKEQFLDEYTKENQKVEESQADEARGENVAEESEIGYGHEDREGDNDEEKEEEDSEENRRAALRERMAKLSGASRFGAPVGFNPFGMASGVGNKPSEEPKKKQHKEKEEEEPEQLQELPRAIPVMPFVDPSSNPFFRKSNLSEKNQPTETKTLDPHATTEHEQKQEHGTHAYHNLAAVDNAHPEYSDHDSDEDTDDHEFEDANDGLRKHSMVEQAFQIGNNESENVNSGEKIYPQEPPISHRTAEVSHDIENSSQNTTGNVLPVSSPQTRVARNGSINSLTKSISGENRRKSINEYHDTVSTNSSALTETAQDISMAAPAAPVLSKVSHPEDKVPPHPVPSAPSAPPVPSAPSVPSAPPVPPAPPALSAPSVPPVPPVPPVSSAPPALSAPSIPPVPPTPPAPPAPPAPLALPKHNEVEEHVKSSAPLPPVSEEYHPMPNTAPPLPRAPPVPPATFEFDSEPTATHSHTAPSPPPHQNVTASTPSMMSTQQRVPTSVLSGAEKESRTLPPHVPSLTNRPVDSFHESDTTPKVASIRRSTTHDVGEISNNVKIEFNAQERWWINKSAPPAISNLKLNFLMEIDDHFISKRLHQKWVVRDFYFLFENYSQLRFSLTFNSTSPEKTVTTLQERFPSPVETQSARILDEYAQRFNAKVVEKSHSLINSHIGAKNFVSQIVSEFKDEVIQPIGARTFGATILSYKPEEGIEQLMKSLQKIKPGDILVIRKAKFEAHKKIGKNEIINVGMDSAAPYSSVVTDYDFTKNKFRVIENHEGKIIQNSYKLSHMKSGKLKVFRIVARGYVGW
notes: Bbc1, S. cerevisiae; also called Bbc1-3myeGFP; Bbc1-3mCherry; source: chromosomally tagged at the endogenous locus, in the cytoplasm of living S. cerevisiae cells

Legend:
[1] = biological target: T1, Sla1 (S. cerevisiae, UniProt P32790 1-1244); experiment: condition: 1000 nM (only Kdeff-values < 1000 nM are shown); fluorescence cross-correlation spectroscopy (FCCS); in the cytoplasm of living yeast cells; first-named protein green (3myeGFP or 1myeGFP; eGFP for Don1), second red (3mCherry); self-interaction in diploid strains with one allele of each colour; apparent or effective KD (Kdeff) from single-cell measurements; only Kdeff values < 1000 nM are shown; values for self-interactions are upper limits
T1 construct: Sla1, S. cerevisiae; also called Sla1-3myeGFP; Sla1-3mCherry; source: chromosomally tagged at the endogenous locus, in the cytoplasm of living S. cerevisiae cells
T1 sequence (looked up): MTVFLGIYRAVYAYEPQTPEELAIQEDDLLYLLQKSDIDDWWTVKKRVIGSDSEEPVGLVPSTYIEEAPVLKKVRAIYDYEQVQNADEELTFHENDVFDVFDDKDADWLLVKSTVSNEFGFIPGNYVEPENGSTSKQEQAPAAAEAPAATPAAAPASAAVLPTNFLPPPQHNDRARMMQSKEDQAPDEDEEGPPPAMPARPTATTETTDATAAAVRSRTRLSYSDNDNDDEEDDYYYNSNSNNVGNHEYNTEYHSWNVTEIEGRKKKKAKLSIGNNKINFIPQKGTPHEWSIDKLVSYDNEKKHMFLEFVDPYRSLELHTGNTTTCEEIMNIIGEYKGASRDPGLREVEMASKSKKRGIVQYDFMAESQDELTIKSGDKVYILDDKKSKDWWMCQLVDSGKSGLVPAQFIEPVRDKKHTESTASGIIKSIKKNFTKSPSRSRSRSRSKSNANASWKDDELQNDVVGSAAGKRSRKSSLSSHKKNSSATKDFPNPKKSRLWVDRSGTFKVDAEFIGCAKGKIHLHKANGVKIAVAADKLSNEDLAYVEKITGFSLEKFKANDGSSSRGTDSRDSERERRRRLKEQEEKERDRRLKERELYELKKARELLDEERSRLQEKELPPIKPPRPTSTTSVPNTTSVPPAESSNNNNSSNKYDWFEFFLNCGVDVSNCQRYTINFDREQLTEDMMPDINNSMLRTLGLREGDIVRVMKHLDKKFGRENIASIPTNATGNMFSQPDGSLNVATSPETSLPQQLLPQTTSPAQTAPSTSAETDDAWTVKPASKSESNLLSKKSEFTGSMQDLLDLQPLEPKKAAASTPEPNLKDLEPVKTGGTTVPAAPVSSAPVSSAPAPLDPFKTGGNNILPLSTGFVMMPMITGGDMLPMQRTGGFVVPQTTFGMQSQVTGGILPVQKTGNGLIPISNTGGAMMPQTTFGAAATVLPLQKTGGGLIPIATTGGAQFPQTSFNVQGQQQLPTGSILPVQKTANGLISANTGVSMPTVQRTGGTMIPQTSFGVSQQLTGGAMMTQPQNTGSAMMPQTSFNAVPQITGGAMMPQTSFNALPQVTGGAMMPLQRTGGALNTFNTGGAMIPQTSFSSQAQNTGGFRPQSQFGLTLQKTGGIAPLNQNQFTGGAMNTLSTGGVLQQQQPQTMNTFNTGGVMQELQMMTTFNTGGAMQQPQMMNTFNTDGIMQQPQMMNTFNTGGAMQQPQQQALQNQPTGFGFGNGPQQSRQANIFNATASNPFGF

[2] = biological target: B1; experiment: fluorescence cross-correlation spectroscopy (FCCS); self-interaction: living diploid yeast cells with one allele fused to (3)myeGFP and one to (3)mCherry, cytoplasm; apparent (effective) KD, to be taken as the upper limit since complexes of one colour are not seen
[3] = biological target: T1, Sla1; experiment: fluorescence cross-correlation spectroscopy (FCCS); living yeast cells, observation volume in the cytoplasm; one protein tagged with (3)myeGFP/eGFP and the other with 3mCherry in the same strain; apparent (effective) KD; interactions up to ~1 μM detectable
[4] = biological target: Las17 (S. cerevisiae) (UniProt Q12446); experiment: as above
[5] = biological target: ede1Δ901–1381-1myeGFP (S. cerevisiae) (UniProt P34216); experiment: FCS molecular brightness (counts per particle per second); living yeast cells, cytoplasm; brightness of GFP-tagged particles compared with 3myeGFP and Ent2-3myeGFP (monomers) or with wild-type Ede1; average of all particles

B1
binding [1]: no binding | binding [2]: binds

B2: Bzz1 (natural protein, S. cerevisiae, UniProt P38822 1-633, looked up)
chain: MSADLSIGNEIKDSFKETHKWVQNNLKWLKDIEQFYRERAKLEKDYSERLSRLSAEYFNKKSSTSVPISVGDTPTTTPGSIEAAGVVAWNEILSQTDMISKDHDQLSTDFENHVANQLSGLFTKLDMTLSKINGFNNDMVNKKDNIYHELEKAKKDYDEACSTMEMARNRYTKASNDRNKKKLDEKEMEMNKCKNEYLIKINQANRTKDKYYFQDVPEVLDLLQDVNEAKTLFLNDLWLKAASVENDLGANVSKRLQAANSVVKQNKPSLNTAIFIKHNLKNWKEPQDFVYKPSPVWHDDEKFAVPSSLEVEDLRIKLAKAENDYNSLQDKTQNELSKLSTLNKIKHEMKTNEDNINATKFYDTLKEYLNVVSPFTSHETLKLQAEVQIESIQNNVPEEYDLSTDNIDLSKTKKKSGIFSKFKHNILNVDSKPSSGGSTGNGNGGPLHITSLFNTSRRTRLGSAPNNAGEDSDNNSIRTTSTNNTKKTTQNSSDDGKNKVLYAYVQKDDDEITITPGDKISLVARDTGSGWTKINNDTTGETGLVPTTYIRISSAATVKANDRGPAPEVPPPRRSTLPVRTMEAIYAYEAQGDDEISIDPGDIITVIRGDDGSGWTYGECDGLKGLFPTSYCK
notes: Bzz1, S. cerevisiae; also called Bzz1-3myeGFP; Bzz1-3mCherry; source: chromosomally tagged at the endogenous locus, in the cytoplasm of living S. cerevisiae cells
binding [3]: binds weakly | binding [4]: binds weakly

B3: ede1Δ901–1381-1myeGFP (domain or fragment, UniProt P34216 1-900)
chain: MASITFRTPLSSQEQAFYNQKFHQLDTEDLGVVTGEAVRPLFASSGLPGQLLSQVWATVDIDNKGFLNLNEFSAALRMIAQLQNAPNQPISAALYESTPTQLASFSINQNPAPMQSGSATGNTNNTDIPALSSNDIAKFSQLFDRTAKGAQTVAGDKAKDIFLKARLPNQTLGEIWALCDRDASGVLDKSEFIMAMYLIQLCMSHHPSMNTPPAVLPTQLWDSIRLEPVVVNQPNRTTPLSANSTGVSSLTRHSTISRLSTGAFSNAASDWSLSFEKKQQFDAIFDSLDKQHAGSLSSAVLVPFFLSSRLNQETLATIWDLADIHNNAEFTKLEFAIAMFLIQKKNAGVELPDVIPNELLQSPALGLYPPNPLPQQQSAPQIAIPSRASKPSLQDMPHQVSAPAVNTQPTVPQVLPQNSNNGSLNDLLALNPSFSSPSPTKAQTVVQNNTNNSFSYDNNNGQATLQQQQPQQPPPLTHSSSGLKKFTPTSNFGQSIIKEEPEEQEQLRESSDTFSAQPPPVPKHASSPVKRTASTTLPQVPNFSVFSMPAGAATSAATGAAVGAAVGAAALGASAFSRSSNNAFKNQDLFADGEASAQLSNATTEMANLSNQVNSLSKQASITNDKKSRATQELKRVTEMKNSIQIKLNNLRSTHDQNVKQTEQLEAQVLQVNKENETLAQQLAVSEANYHAAESKLNELTTDLQESQTKNAELKEQITNLNSMTASLQSQLNEKQQQVKQERSMVDVNSKQLELNQVTVANLQKEIDGLGEKISVYLTKQKELNDYQKTVEEQHAQLQAKYQDLSNKDTDLTDREKQLEERNRQIEEQENLYHQHVSKLQEMFDDLSQRKASFEKADQELKERNIEYANNVRELSERQMNLAMGQLPEDAKDIIAKSAS
binding [5]: binds
